Test results taken from article PMC3182244.
No constants are given. Whether binding was seen depends on the method and setting. Binding seen in cells or lysates may run through a third protein. Some results given as binding are weak or reduced against the parent protein; the word gives no strength. Where a sequence is shown, tags or fusion partners need not be part of it.

T1: His-tagged Tob38 (strain Tob38HT) (Neurospora crassa) (UniProt V5IPB4)
T1 sequence: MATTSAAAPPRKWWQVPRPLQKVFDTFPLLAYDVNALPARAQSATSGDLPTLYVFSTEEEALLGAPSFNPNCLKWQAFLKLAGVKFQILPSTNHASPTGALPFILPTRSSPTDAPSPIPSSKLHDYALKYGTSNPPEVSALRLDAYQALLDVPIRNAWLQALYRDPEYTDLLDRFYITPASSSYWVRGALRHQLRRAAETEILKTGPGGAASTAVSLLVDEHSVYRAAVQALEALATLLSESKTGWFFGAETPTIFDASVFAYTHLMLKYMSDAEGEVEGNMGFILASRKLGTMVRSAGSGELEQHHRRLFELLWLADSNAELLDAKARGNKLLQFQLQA

T2: His-tagged Tob37 (strain Tob37HT) (Neurospora crassa) (UniProt Q7SFC4)
T2 sequence: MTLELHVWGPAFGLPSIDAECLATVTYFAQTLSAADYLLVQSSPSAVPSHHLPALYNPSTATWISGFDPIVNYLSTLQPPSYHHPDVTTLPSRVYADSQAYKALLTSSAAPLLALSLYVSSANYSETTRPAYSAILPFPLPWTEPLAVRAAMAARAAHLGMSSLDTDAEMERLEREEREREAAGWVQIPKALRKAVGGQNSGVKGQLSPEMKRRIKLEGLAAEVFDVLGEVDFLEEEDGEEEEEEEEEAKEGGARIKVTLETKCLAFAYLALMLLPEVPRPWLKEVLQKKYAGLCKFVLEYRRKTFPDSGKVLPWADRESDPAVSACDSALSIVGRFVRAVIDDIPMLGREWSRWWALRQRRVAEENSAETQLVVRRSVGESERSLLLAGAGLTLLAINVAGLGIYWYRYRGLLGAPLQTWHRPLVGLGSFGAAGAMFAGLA


Tests used:
[1] = target: T1, His-tagged Tob38 (strain Tob38HT) (Neurospora crassa); assay: pull-down; His-tagged TOB subunit purified from isolated N. crassa mitochondria on Ni-NTA resin (as in ref. 16); eluate run on BNGE, or BNGE then SDS-PAGE (two dimensions), and blotted with antibodies to Tob55, Tob38, Tob37 or Mdm10
[2] = target: T2, His-tagged Tob37 (strain Tob37HT) (Neurospora crassa); assay: as above

Row | binding [1] | binding [2] | Binder
1 | binds |  | Tob37 (protein, UniProt Q7SFC4 1-442) MTLELHVWGPAFGLPSIDAECLATVTYFAQTLSAADYLLVQSSPSAVPSHHLPALYNPSTATWISGFDPIVNYLSTLQPPSYHHPDVTTLPSRVYADSQAYKALLTSSAAPLLALSLYVSSANYSETTRPAYSAILPFPLPWTEPLAVRAAMAARAAHLGMSSLDTDAEMERLEREEREREAAGWVQIPKALRKAVGGQNSGVKGQLSPEMKRRIKLEGLAAEVFDVLGEVDFLEEEDGEEEEEEEEEAKEGGARIKVTLETKCLAFAYLALMLLPEVPRPWLKEVLQKKYAGLCKFVLEYRRKTFPDSGKVLPWADRESDPAVSACDSALSIVGRFVRAVIDDIPMLGREWSRWWALRQRRVAEENSAETQLVVRRSVGESERSLLLAGAGLTLLAINVAGLGIYWYRYRGLLGAPLQTWHRPLVGLGSFGAAGAMFAGLA
2 | binds | binds | Mdm10 (protein, UniProt Q7SBE0 1-480) MREFMNYITNAFYGATGWNEDNKYNELNATSRELIDFPLPRGLRLTLSSLATPHFATSYQLGSVGVVDGSISYLHSSIPLTHIAAQSDKIPLPALLRCYRRLHDLRSPGQQHYILDADPLSGLPPPPQSARALLGAASDAAVAGGALDGGNTDQDLGIYTHSLLYGRLYLPKSLLEGMIIKRFTQALQVQVRAVSEQSLRNGGTILGLVQYDKGKYGLEGLYSTDGGLLGFRGLYNFGGDASSSTCDPWTPTPGENNNNNNNNNNNNNGNAQAGEKERIYGRFSVGGELYYGTLNKSGGMSLGARFATLPAHRGTPLTATLTINPLMGNINATYALLAREYCSLATRVDFNVYSYESEWAVGMELWSNRRPAGFLLGASPSNDFEPEPHPPRKKERSFQAKMEWRLDDPEPEPEPQPTPKTRKNDEYKGVLKARLDNNLRMGLLWEGRAKSLIFSIGTGIDLHKLGEPFRSLGLEVQYSS
3 |  | binds | Tob38 (protein, UniProt V5IPB4 1-340) MATTSAAAPPRKWWQVPRPLQKVFDTFPLLAYDVNALPARAQSATSGDLPTLYVFSTEEEALLGAPSFNPNCLKWQAFLKLAGVKFQILPSTNHASPTGALPFILPTRSSPTDAPSPIPSSKLHDYALKYGTSNPPEVSALRLDAYQALLDVPIRNAWLQALYRDPEYTDLLDRFYITPASSSYWVRGALRHQLRRAAETEILKTGPGGAASTAVSLLVDEHSVYRAAVQALEALATLLSESKTGWFFGAETPTIFDASVFAYTHLMLKYMSDAEGEVEGNMGFILASRKLGTMVRSAGSGELEQHHRRLFELLWLADSNAELLDAKARGNKLLQFQLQA
